Measurements reported in PubChem BioAssay AID1508597 (Cure First, 2020)
This is a random part of the about 2,100 reagents, under one of the conditions tested. 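Calls flag viability under 80% in either arm, not effects specific to rucaparib; the reference for percent is not stated.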 Unmarked entries are inactive. A reagent listed more than once was tested more than once; the source does not tell the runs apart. The record does not give: the 100% reference.

Assay: 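Survival screen with siRNA in ovarian cancer cells derived from patients, with or without rucaparib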 (primary screen)
Cell system: human ovarian carcinoma lines grown from tumours: OCI-P5x (papillary serous) and OCI-C5x (clear cell)
Knock-down reagent: siRNA pool against human genes, 1.25 pmol siRNA per well
Time to read-out: 72 h or 96 h, depending on the cell culture
Challenge: rucaparib 20 µM (about IC30) or vehicle, present until read-out
Rucaparib or vehicle: Vehicle
Cell line: OCI-P5x (serous)
Measured: 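Luminescent ATP-based viability assay read 72 or 96 h after transfection, depending on culture, given as normalised percent viability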
Scale: viability, normalised: higher = more viable cells remaining
Hit rule: 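Active when normalised viability falls below 80 percent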
Meaning of the calls: active = viability under 80%; inactive = viability 80% or more

POLK (DNA polymerase kappa), technical replicate 1: viability, normalised (%) = 72.8 (active)
POLK (DNA polymerase kappa), technical replicate 1: viability, normalised (%) = 56.1 (active)
POLK (DNA polymerase kappa), technical replicate 2: viability, normalised (%) = 54.1 (active)
POLK (DNA polymerase kappa), technical replicate 2: viability, normalised (%) = 57 (active)
POLK (DNA polymerase kappa), technical replicate 3: viability, normalised (%) = 53.4 (active)
POLK (DNA polymerase kappa), technical replicate 3: viability, normalised (%) = 69.7 (active)
DPF3 (double PHD fingers 3), technical replicate 1: viability, normalised (%) = 63.5 (active)
DPF3 (double PHD fingers 3), technical replicate 2: viability, normalised (%) = 72.6 (active)
DPF3 (double PHD fingers 3), technical replicate 3: viability, normalised (%) = 59.3 (active)
CXXC5 (CXXC finger protein 5), technical replicate 1: viability, normalised (%) = 52.6 (active)
CXXC5 (CXXC finger protein 5), technical replicate 2: viability, normalised (%) = 82.6
CXXC5 (CXXC finger protein 5), technical replicate 3: viability, normalised (%) = 79 (active)
CHRAC1 (chromatin accessibility complex subunit 1), technical replicate 1: viability, normalised (%) = 81.9
CHRAC1 (chromatin accessibility complex subunit 1), technical replicate 2: viability, normalised (%) = 85.9
CHRAC1 (chromatin accessibility complex subunit 1), technical replicate 3: viability, normalised (%) = 95.6
RPS6KA6 (ribosomal protein S6 kinase A6), technical replicate 1: viability, normalised (%) = 80 (active)
RPS6KA6 (ribosomal protein S6 kinase A6), technical replicate 2: viability, normalised (%) = 79.2 (active)
RPS6KA6 (ribosomal protein S6 kinase A6), technical replicate 3: viability, normalised (%) = 73.3 (active)
DLG3 (discs large MAGUK scaffold protein 3), technical replicate 1: viability, normalised (%) = 71.5 (active)
DLG3 (discs large MAGUK scaffold protein 3), technical replicate 2: viability, normalised (%) = 83.8
DLG3 (discs large MAGUK scaffold protein 3), technical replicate 3: viability, normalised (%) = 75.3 (active)
DHX57 (DExH-box helicase 57), technical replicate 1: viability, normalised (%) = 67.7 (active)
DHX57 (DExH-box helicase 57), technical replicate 2: viability, normalised (%) = 89
DHX57 (DExH-box helicase 57), technical replicate 3: viability, normalised (%) = 83.7
NLGN2 (neuroligin 2), technical replicate 1: viability, normalised (%) = 63.8 (active)
NLGN2 (neuroligin 2), technical replicate 2: viability, normalised (%) = 71.6 (active)
NLGN2 (neuroligin 2), technical replicate 3: viability, normalised (%) = 84.5
RPS3A (ribosomal protein S3A), technical replicate 1: viability, normalised (%) = 51.4 (active)
RPS3A (ribosomal protein S3A), technical replicate 2: viability, normalised (%) = 51 (active)
RPS3A (ribosomal protein S3A), technical replicate 3: viability, normalised (%) = 49.8 (active)
NEK2 (NIMA related kinase 2), technical replicate 1: viability, normalised (%) = 81.8
NEK2 (NIMA related kinase 2), technical replicate 1: viability, normalised (%) = 86.3
NEK2 (NIMA related kinase 2), technical replicate 2: viability, normalised (%) = 76.8 (active)
NEK2 (NIMA related kinase 2), technical replicate 2: viability, normalised (%) = 95.2
NEK2 (NIMA related kinase 2), technical replicate 3: viability, normalised (%) = 105
NEK2 (NIMA related kinase 2), technical replicate 3: viability, normalised (%) = 87.4
WDR82 (WD repeat domain 82), technical replicate 1: viability, normalised (%) = 85.2
WDR82 (WD repeat domain 82), technical replicate 2: viability, normalised (%) = 102
WDR82 (WD repeat domain 82), technical replicate 3: viability, normalised (%) = 116
DYRK1B, technical replicate 1: viability, normalised (%) = 70 (active)
DYRK1B, technical replicate 2: viability, normalised (%) = 62.6 (active)
DYRK1B, technical replicate 3: viability, normalised (%) = 86

Looked up above:
Result of RPS6KA6 (ribosomal protein S6 kinase A6), technical replicate 2 under “viability, normalised (%)”: 79.2 (active)
CXXC5 (CXXC finger protein 5), technical replicate 3, viability, normalised (%) = 79 (active)
Entry for CXXC5 (CXXC finger protein 5), technical replicate 2 in “viability, normalised (%)”: 82.6
Under “viability, normalised (%)”, NLGN2 (neuroligin 2), technical replicate 1 reads 63.8 (active)
DHX57 (DExH-box helicase 57), technical replicate 1, viability, normalised (%) → 67.7 (active)
Value for CXXC5 (CXXC finger protein 5), technical replicate 1 under “viability, normalised (%)”: 52.6 (active)
